# Results published in PubChem BioAssay AID1439 (NMMLSC, 2008).
# Chains of the proteins cited; added tags and fusions are not shown.
# UniProt P09471, whole entry, looked up: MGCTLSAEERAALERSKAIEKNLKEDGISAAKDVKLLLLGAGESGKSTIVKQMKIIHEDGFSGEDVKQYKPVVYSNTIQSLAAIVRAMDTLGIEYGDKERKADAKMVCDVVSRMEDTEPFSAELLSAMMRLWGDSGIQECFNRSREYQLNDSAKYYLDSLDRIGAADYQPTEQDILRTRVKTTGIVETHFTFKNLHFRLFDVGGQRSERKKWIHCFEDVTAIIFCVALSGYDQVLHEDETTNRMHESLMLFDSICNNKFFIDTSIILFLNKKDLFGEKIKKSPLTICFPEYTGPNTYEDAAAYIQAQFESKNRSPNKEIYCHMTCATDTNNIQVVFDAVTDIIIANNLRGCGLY
# Hit rate of the full screen: of about 220,000 compounds, about 770 (0.35%) were called active. Inconclusive means that the source gave no clear call. Such entries were picked first, then a sample of the others. Cut-off read from the data, not from the text of the source: active = binding response below about 49% or above about 150%; inconclusive = no clear call, values can overlap the other calls; inactive = in between.
# Molecular target: Guanine nucleotide-binding protein G(o) subunit alpha (Homo sapiens) (UniProt P09471)
# Test: RGS7-Galphao binding modulators, primary screen, biochemical, multiplexed bead flow cytometry (AID 1439);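 note: fluorescent Galphao held in activated GDP-AlF4 state binding bead-coupled RGS7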
# Conditions: at 10 µM, actives lie on both sides
row,Structure (SMILES),binding response (% of control)
1,CCOC(=O)C1(CC2CC2)CCN(S(=O)(=O)/C=C/c2ccccc2)CC1,inactive: 50.5%
2,COc1ccc(C(CC(=O)c2ccccc2)CC(=O)c2ccccc2)cc1OC,inconclusive: 110%
3,CCN1C/C(=C/c2cccs2)c2nc3ccccc3c(C(=O)O)c2C1,inconclusive: 99.6%
4,O=[N+]([O-])c1ccccc1N/N=C/c1ccc2c(c1)OCO2,inconclusive: 94.2%
5,N#CCCn1cc(/C=N/NC(N)=S)c(-c2ccc(-c3ccccc3)cc2)n1,inactive: 109%
6,CN(C(=O)CC1C(=O)NCCN1Cc1ccc(F)c(F)c1)C1CCOCC1 (stereo not given),inactive: 95.8%
7,Cc1ccccc1Cn1nc(C)c(NC(=O)c2ccccc2)c1C,inconclusive: 101%
8,CCN(CC(=O)NCCc1ccc(F)cc1)Cc1nc2ccccc2c(=O)[nH]1,inconclusive: 86.5%
9,COc1ccc(-n2nc(C(=O)NCC(=O)NCC3COc4ccccc4O3)c3ccccc3c2=O)cc1 (stereo not given),inconclusive: 104%
10,Cn1c2c(c(=O)n(C)c1=O)C(c1ccc(Cl)cc1)C(C#N)=C(N)O2 (stereo not given),inactive: 98.6%
11,CCCCCC1CC(=O)C=C(C)C1C(=O)OC (stereo not given),inconclusive: 154%
12,CSc1ccccc1NC(=O)CN(C)CC(=O)Nc1ccccc1F,inactive: 98.8%
13,OCc1cn(-c2ccccc2)nc1-c1cc2ccccc2o1,inconclusive: 104%
14,COC(OC)c1ccnc(-c2ccc(OC(=O)c3cccs3)cc2)n1,inconclusive: -283%
15,Cc1cc(=O)n2c(n1)NC(Nc1cccc(C)c1C)=NC2c1ccccc1 (stereo not given),inconclusive: 291%
16,N/C(=N\OC(=O)c1cccc2ccccc12)c1ccncc1,inconclusive: 108%
17,CCN(CC)C(=O)CSc1nc(O)c(Cc2ccccc2)c(=O)n1-c1ccc(C)cc1,inconclusive: 78.2%
18,Fc1ccccc1Nc1n[nH]c(=S)s1,inconclusive: 96%
19,O=S(=O)(Nn1c(O)c(C=C2N=c3ccccc3=N2)sc1=S)c1ccccc1,inconclusive: 84.4%
20,CCN(CC)S(=O)(=O)c1ccc(Cl)c(NC(=O)COC(=O)c2ccc([N+](=O)[O-])o2)c1,inconclusive: 74.7%

# Reformatted as tab-separated lines: part of the list above.
row	Structure (SMILES)	binding response (% of control)
4	O=[N+]([O-])c1ccccc1N/N=C/c1ccc2c(c1)OCO2	inconclusive: 94.2%
11	CCCCCC1CC(=O)C=C(C)C1C(=O)OC (stereo not given)	inconclusive: 154%
20	CCN(CC)S(=O)(=O)c1ccc(Cl)c(NC(=O)COC(=O)c2ccc([N+](=O)[O-])o2)c1	inconclusive: 74.7%

# Following part:

row,Structure (SMILES),binding response (% of control)
1,COc1ccc(C(=O)NC(=S)Nc2ccc(CN3CCOCC3)cc2)cc1,inconclusive: 333%
2,CN(C)Cc1cc(O)c(CN(C)C)cc1O,inconclusive: 123%
3,Cc1nnc(SCc2c(Cl)cccc2Cl)n(N)c1=O,inconclusive: 101%
4,Cc1ccc(S(=O)(=O)NCCc2cccs2)cc1,inconclusive: 97%
5,CC1(C)C=Cc2cc3ccc(=O)oc3cc2O1,inconclusive: 95.6%
6,COC(=O)Nc1nnc(-c2ccco2)s1,inconclusive: 114%
7,CC(=O)Oc1ccc2occ(/C=N/c3cc(=O)[nH]c(=S)[nH]3)c(=O)c2c1,inconclusive: 122%
8,CCC1CCCCN1C(=S)NC(=O)c1cccs1 (stereo not given),inconclusive: 103%
9,Cc1sc2nc(CSc3ncn[nH]3)[nH]c(=O)c2c1C,inconclusive: 69%
10,CCOc1ccc(NC(=O)C2CCCN(C)C2)cc1 (stereo not given),inconclusive: 103%
11,CCCC(=O)NC(=S)Nc1cccc(C(C)=O)c1,inactive: 119%
12,Cc1onc(-c2c(Cl)cccc2Cl)c1NC(=O)NN(C)c1ccc([N+](=O)[O-])cn1,inconclusive: 96.3%
13,O=C1CC(c2ccc(O)c(O)c2)Oc2c1ccc(O)c2O (stereo not given),inconclusive: 55.7%
14,COc1ccccc1NC(=O)c1ccc(NC(=O)COC(=O)C2CCCO2)cc1 (stereo not given),inconclusive: 81.9%
15,O=c1/c(=C\c2ccc(F)cc2)sc2n1CCCN=2,inconclusive: 104%
16,Cc1ccccc1C(C(=O)NC1CCCCC1)N(C(=O)c1ccccn1)c1cccnc1 (stereo not given),inactive: 106%
17,CSc1ccc(/C=N/N2CCN(C)CC2)cc1,inconclusive: 90.1%
18,CC1(C)CC(=O)C(C=NCC(N)=O)=C(O)C1,inactive: 149%
19,CSc1nc2ncc(C#N)cn2n1,inconclusive: 106%
20,COc1cc(OC)c(NC(=O)/C=C/C(=O)O)cc1Cl,inconclusive: 104%

row,Structure (SMILES),binding response (% of control)
1,O=C(Nc1ccc(Oc2ccc(C(F)(F)F)cn2)c(Cl)c1)C1CC1,inactive: 98.9%
2,C=CCNC(=O)c1c(C(F)(F)F)nn(C)c1Cl,inconclusive: 97.1%
3,Cc1ccc(NC(=O)NC(=O)c2cnccc2C(F)(F)F)c(C)c1,inconclusive: 79.9%
4,O=C(NC(n1ccc(=O)[nH]c1=O)C(Cl)(Cl)Cl)C12CC3CC(CC(C3)C1)C2 (stereo not given),inconclusive: 28.2%
5,CN(C(=O)COc1ccc(S(=O)(=O)N2CCOCC2)cc1[N+](=O)[O-])C1CCS(=O)(=O)C1 (stereo not given),inconclusive: 102%
6,Cc1ccccc1C(=O)Nc1nc2c(C)csc2c(=O)s1,inconclusive: 93%
7,Cc1sc2c(c1C)C(=O)/C(=C\Nc1ccccn1)S(=O)(=O)N2C,inconclusive: 262%
8,Cc1ccc(-n2c(=S)[nH]c3[nH]ncc3c2=O)cc1,inactive: 98.8%
9,COc1cccc(/C=N/Nc2nc3ccccc3[nH]2)c1O,inconclusive: 151%
10,COc1ccc(-c2cc(=O)c(C(=O)c3ccc(C)cc3)n[nH]2)cc1,inconclusive: 94%
11,COC(=O)c1cc(C#N)c(=O)[nH]c1C,inconclusive: 93.7%
12,CC(=O)CC(C)(C)NC(C)=S,inconclusive: 230%
13,CN(Cc1ccccc1)C(=O)C1CCCN1S(=O)(=O)c1ccc2c(c1)n(C)c(=O)c(=O)n2C (stereo not given),inconclusive: 107%
14,Cc1cccc(OCCn2cnc(Cl)c2Cl)c1,inconclusive: 101%
15,C=CCN1C=C2C(=O)C(C)(OC(=O)CC)C(=O)C=C2C=C1CCCC (stereo not given),inconclusive: 72%
16,Cc1ccc(S(=O)(=O)Nc2cc(-c3ccc(Cl)cc3)nn2C)cc1,inconclusive: 89.6%
17,CCCCn1c(N)c(Br)c(=O)[nH]c1=O,inconclusive: 118%
18,CC(C)(C)C(=O)O/N=C(\N)c1ccc(Oc2cc(Cl)cc(Cl)c2)c([N+](=O)[O-])c1,inconclusive: 135%
19,C=CCn1c(CCC(O)CCCCC)n[nH]c1=S (stereo not given),inactive: 104%
20,COC(=O)C1=C(C)N(CCCC(=O)O)C(=O)NC1c1cccs1 (stereo not given),inactive: 95.6%
